Among the data in article PMC11818545 are binding values, retold here.

Sequences of proteins named here, by UniProt entry; tags and fusion partners are left off.
UniProt P09528: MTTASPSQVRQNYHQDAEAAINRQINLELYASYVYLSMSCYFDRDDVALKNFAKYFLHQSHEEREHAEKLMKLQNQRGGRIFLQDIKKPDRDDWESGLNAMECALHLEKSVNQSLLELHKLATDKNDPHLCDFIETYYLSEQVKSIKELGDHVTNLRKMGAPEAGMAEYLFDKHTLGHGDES
UniProt Q9CUN6: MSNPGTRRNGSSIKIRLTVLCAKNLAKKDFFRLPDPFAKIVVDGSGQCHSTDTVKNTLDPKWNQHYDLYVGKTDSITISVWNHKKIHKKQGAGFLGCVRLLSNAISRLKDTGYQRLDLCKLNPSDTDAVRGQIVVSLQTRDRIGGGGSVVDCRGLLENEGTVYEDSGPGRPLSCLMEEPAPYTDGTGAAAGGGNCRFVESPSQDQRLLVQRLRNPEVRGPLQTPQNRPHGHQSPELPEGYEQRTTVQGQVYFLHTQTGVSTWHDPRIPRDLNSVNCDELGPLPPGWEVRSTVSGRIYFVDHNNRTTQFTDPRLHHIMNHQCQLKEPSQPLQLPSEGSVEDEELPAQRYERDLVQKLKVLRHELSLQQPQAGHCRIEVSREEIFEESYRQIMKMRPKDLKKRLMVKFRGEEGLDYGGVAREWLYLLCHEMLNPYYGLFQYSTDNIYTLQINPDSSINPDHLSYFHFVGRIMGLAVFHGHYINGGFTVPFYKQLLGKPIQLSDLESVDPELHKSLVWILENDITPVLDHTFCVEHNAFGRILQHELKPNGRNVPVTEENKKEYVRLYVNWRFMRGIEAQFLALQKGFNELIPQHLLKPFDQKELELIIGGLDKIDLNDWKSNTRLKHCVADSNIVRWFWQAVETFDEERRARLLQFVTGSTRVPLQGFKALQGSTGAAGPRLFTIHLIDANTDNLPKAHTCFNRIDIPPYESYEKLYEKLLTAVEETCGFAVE

These are yes or no findings as the source states them, for the method shown. Binding seen in cells or lysates may run through a third protein. Some results given as binding are weak or reduced against the parent protein; the word gives no strength.

For experiment [1], the target named is Ferritin heavy chain 1 (FTH1), endogenous in mouse primary myoblasts (mouse (endogenous in primary myoblasts)) (UniProt P09528). Put plainly: co-IP; reciprocal co-immunoprecipitation of endogenous proteins with SMURF1 or FTH1 antibody or control IgG, protein A/G plus-agarose, lysate of primary myoblasts cultured 4 days in differentiation medium, immunoblot. Background: A western blot detects proteins with antibodies after separation by electrophoresis.

Experiment [2] concerns the target Flag-tagged FTH1 expressed in HEK293T cells (mouse) (UniProt P09528). The experiment can be described thus: co-IP; reciprocal co-immunoprecipitation of GFP-tagged SMURF1 and Flag-tagged FTH1 in HEK293T cells, immunoblot.

Consider “E3 ubiquitin-protein ligase SMURF1, endogenous in mouse primary myoblasts (from UniProt Q9CUN6 1-731) (enzyme)”, for which the binding result in experiment [1] is reported as “binds”.
“GFP-tagged SMURF1 expressed in HEK293T cells (from UniProt Q9CUN6 1-731) (enzyme)”: the binding result in experiment [2] is “binds”.
